Measurements published in the supplement of paper PMC7125110.
± gives the standard error. Many of these values have a large error.

B1: glmS ribozyme (parent)
chain: AUAAAAGCGCCAGAACUACAGAAAUGUAGUUGACGAGGAGGAGGUUUAUCGAAUUUUCGGCGGAUGCCUCCAAA

Variants of: B1
Experiment: self-cleavage kobs at 160 uM GlcN6P; higher = faster cleavage; RNA array
Conditions: with glucosamine-6-phosphate
Outline: (§1)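 Weighted Michaelis–Menten fits across concentrations supplied kcat and KM, based on kobs from one- or two-exponential decay fits to normalised per-tile medians. The data came from barcoded ribozyme variants transcribed in situ by E. coli RNA polymerase on sequenced MiSeq chips and tracked at 37 °C by a hybridised Cy3 probe. Glucosamine-6-phosphate (40 μM to 10 mM) in HEPES/KCl/Mg(OAc)2 buffer was flowed in.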

Variant | self-cleavage kobs at 160 uM GlcN6P [s⁻¹]
AUAAAAGCGCCAGAACUACAGAAAUGUAGUUGACGAGGAGGAGGUUUAUCGAAUUUACGGCGGAUGCGUCCAAA [U57A C68G] | 2.82e-05 ± 1.5e-05
AUAAAAGCGCCAGAACUACAGAAAUGUAGUUGACGAGGAGGAGGUUUAUUGAAUUUUCGGCGGAUGCCUACAAA [C50U C70A] | 2.54e-05 ± 1.7e-05
AUAAAAGCGCCAGAACUACAGAAAUGUAGUUGACGAGAAGGAGGUUUAUCGAAUUUUUGGCGGAUGCGUCCAAA [G38A C58U C68G] | 2.26e-05 ± 2.2e-05
AUAAAAGCGCCAGAACUACAGAAAUGUAGUUGACGAGGAGGAGGUUUAUGGAAUGUUCGGCGGAUGGCUCCAAA [C50G U55G C67G] | 2.71e-05 ± 1.6e-05
AUAAAAGCGCCAGAACUACAGAAAUGUAGUUGACGAGGAGGAGGUUUUUCGAAUUUUCGGCGGAUGCCUGCAAA [A48U C70G] | 1.94e-05 ± 1.7e-05
AUAAAAGCGCCAGAACUACAGAAAUGUAGUUGACGAGGAGGAGGUUUAUCGAAUUUUCAGCGGAUGCCUCCAAA [G59A] | < 1e-05
AUAAAAGCGCCAGAACUACAGAAAUGUAGUUGACGAGGAGGAGGUUUAUCGAAUUUUCGGCGGAUGACUACAAA [C67A C70A] | 2.89e-05 ± 1.5e-05
AUAAAAGCGCCAGAACUACAGAAAUGUAGUUAACGAGGAGAAGGUUUAUCGAAUUUUCGGCGGAUGCCUCCAAA [G32A G41A] | 1.4e-05 ± 1.2e-05
AUAAAAGCGCCAGAACUACAGAAAUGUAGUUGACGAGGGGGAGGUUUAUCGAAUUUUGGGCGGAUGCCUCAAAA [A39G C58G C71A] | 2.81e-05 ± 2.4e-05
AUAAAAGCGCCAGAACUACAGAAAUGUACUUGACGAGGAGGAGGUUUAUCGGAUUUUCGGCGGAUGCCUCCAAA [G29C A52G] | 2.19e-05 ± 1.8e-05
AUAAAAGCGCCAGAACUACAGAAAUGUAGUUGACGAGGAUGAGGUUUAUCGAAUUUUCGGCGGGUGCCUCCAAA [G40U A64G] | 2.28e-05 ± 1.2e-05
AUAAAAGCGCCAGAACUACAGAAAUGUACUUGACGAGGAGGAGGUUUAUCGAAUUUUCGGCGGAUGCCUGCAAA [G29C C70G] | 2.68e-05 ± 1.8e-05
AUAAAAGCGCCAGAACUACAGAAAUGUAGUUGACGAGGAGGAGGUUAAUCGAAUUUUCGGCGGAUGCGUCCAAA [U47A C68G] | 2.85e-05 ± 1.8e-05
AUAAAAGCGCCAGAACUACAGAAAUGUAGUGGACGAGGAGGAGGUUUAUCGAAUUUUCGGCGGAUGCAUCCAAA [U31G C68A] | 2.12e-05 ± 1.7e-05
AUAAAAGCGCCAGAACUACAGAAAUGUACUUGACGAGGAGGAGGUUUAUCGAAUUUUCGGCGGAUGUCUCCAAA [G29C C67U] | 0.00251 ± 0.0013
AUAAAAGCGCCAGAACUACAGAAAUGUAGUUGUCGAGGAGGAGGUUUAUCGAAUUUUCUGCGGAUGCCGCCAAA [A33U G59U U69G] | 3.44e-05 ± 1.8e-05
AUAAAAGCGCCAGAACUACAGAAAUGUAGUUGACGAGGGGGAGGUUUAUCGAAUUUUCGGCGGAUGGGUCCAAA [A39G C67G C68G] | 3.13e-05 ± 1.7e-05
AUAAAAGCGCCAGAACUACAGAAAUGUAGUUGACGAGGAGGAGGUUUAUCGAAUGUUCGGCGGCUGCCUCCAAA [U55G A64C] | 2.55e-05 ± 2.2e-05
AUAAAAGCGCCAGAACUACAGAAAUGUAGUUGACGAGGAGGUGGUUUAUCGAAUAUUCGGCGGAUGCCUCCAAA [A42U U55A] | 1.95e-05 ± 1.9e-05
AUAAAAGCGCCAGAACUACAGAAAUGUAGUUGACGAGGAGGAGGUUGAUGGAAUUUUCGGCGGAUGCCUCCAAA [U47G C50G] | 3.72e-05 ± 2e-05
AUAAAAGCGCCAGAACUACAGAAAUGUAGUUGACGAGGAAGAGGUUUAUCGGAUUUUCGGCGGAUGCCUCCAAA [G40A A52G] | 2.05e-05 ± 1.2e-05
AUAAAAGCGCCAGAACUACAGAAAUGUAGUUGACGAAGAGGAGGUUUAUCGAAUUUUCGGCGGAUGCCCCCAAA [G37A U69C] | 3.99e-05 ± 2.4e-05
AUAAAAGCGCCAGAACUACAGAAAUGUAGUUUACGAGGAGGAGGUGUAUGGAAUUUUCGGCGGAUGCCUCCAAA [G32U U46G C50G] | 5.56e-05 ± 3.2e-05
AUAAAAGCGCCAGAACUACAGAAAUGUAGUUGACGAGGAGGAGGUUUAUCGAAUUUUCGGCGGAUGUAUCCAAA [C67U C68A] | 2.18e-05 ± 1.3e-05

Looked up above:
Entry of AUAAAAGCGCCAGAACUACAGAAAUGUAGUUGACGAGGAGGAGGUUUAUCGAAUUUUCGGCGGAUGUAUCCAAA [C67U C68A] under self-cleavage kobs at 160 uM GlcN6P [s⁻¹]: 2.18e-05 ± 1.3e-05
Entry of AUAAAAGCGCCAGAACUACAGAAAUGUAGUUGACGAGGAGGAGGUUUUUCGAAUUUUCGGCGGAUGCCUGCAAA [A48U C70G] under self-cleavage kobs at 160 uM GlcN6P [s⁻¹]: 1.94e-05 ± 1.7e-05

Variants of: B1
Experiment: self-cleavage kobs at 10000 uM GlcN6P; higher = faster cleavage; RNA array
Conditions: with glucosamine-6-phosphate
Outline: as §1

Variant | self-cleavage kobs at 10000 uM GlcN6P [s⁻¹]
AUAAAAGCGCCAGAACUACAGAAAUGUAGUUGACGAGGAGGAGGUUUAUCGAAUUUACGGCGGAUGCGUCCAAA [U57A C68G] | 1.49e-05 ± 1.2e-05
AUAAAAGCGCCAGAACUACAGAAAUGUAGUUGACGAGGAGGAGGUUUUUCGAAUUUUCGGCGGAUGCCUGCAAA [A48U C70G] | 1.44e-05 ± 9.1e-06
AUAAAAGCGCCAGAACUACAGAAAUGUAGUUGACGAGGGGGAGGUUUAUCGAAUUUUGGGCGGAUGCCUCAAAA [A39G C58G C71A] | 2.67e-05 ± 2e-05
AUAAAAGCGCCAGAACUACAGAAAUGUAGUGGACGAGGAGGAGGUUUAUCGAAUUUUCGGCGGAUGCAUCCAAA [U31G C68A] | 1.88e-05 ± 1.2e-05
AUAAAGGCGCCAGAACUACAGAAAUGUAGUUGACGAGGAAGAGGUUUAUCGAAUUUUCGGCGGAUGCCUCCAAA [A6G G40A] | 2.1e-05 ± 1.1e-05

Variants of: B1
Experiment: self-cleavage kobs at 2500 uM GlcN6P; higher = faster cleavage; RNA array
Conditions: with glucosamine-6-phosphate
Outline: as §1

Variant | self-cleavage kobs at 2500 uM GlcN6P [s⁻¹]
AUAAAAGCGCCAGAACUACAGAAAUGUAGUUGACGAGGAGGAGGUUUAUGGAAUGUUCGGCGGAUGGCUCCAAA [C50G U55G C67G] | 3.54e-05 ± 2.3e-05
AUAAAAGUGCCAGAACUACAGAAAUGUAGUUGACGAUGAGGAGGUUUAUCGAAUUUUCGGCGGAUGCCUCGAAA [C8U G37U C71G] | 3.77e-05 ± 3.2e-05
AUAAAAGCGACAGAACUACAGAAAUGUAGUUGACGAGGAGGAGGUUUAUCGAAUUUUCGGCGGAUGGAUCCAAA [C10A C67G C68A] | 2.9e-05 ± 1.8e-05
AUAAAGGCGCCAGAAGUACAGAAAUGUAGUUGACGAGGAGGAGGUUUAUCGAAUUUUCGGCGGAUGCCUCCAAA [A6G C16G] | 2.2e-05 ± 1.8e-05
AUAAACGCGCCAGAACUACAGAAAUGUAGUUGACGAGGAGGAGGUUUAUCGAAUUUUCGGCGGAUGUCUCCAAA [A6C C67U] | 2.14e-05 ± 1.8e-05
AUAAAGGCGCCAGAACUACAGAAAUGUAGUUGACGAGGAAGAGGUUUAUCGAAUUUUCGGCGGAUGCCUCCAAA [A6G G40A] | 2.09e-05 ± 2.1e-05
AUAAAAGCACCAGAACUACAGAAAUGUAGUUGACGAGGAGGGGGUUUAUCGAAUUUUCGGCGGAUGCCUCCAAA [G9A A42G] | 1.81e-05 ± 1.7e-05
AUAAAAGUGCCAGAAUUACAGAAAUGUAGUUGACGAGGAGGAGGUUUAUGGAAUUUUCGACGGAUUCCUCCAAA [C8U C16U C50G G60A G66U] | 8.21e-05 ± 4.8e-05
